# Measured values: PubChem BioAssay AID248 (DTP/NCI, 2004)
# The list shows only some results of the screen, not a fair sample: it gathers some chemical classes. Not every dose and run of a compound is shown. T/C is the treated group as % of the vehicle group. Some entries give survivors of the animals treated and no T/C: the source holds a T/C of zero for them, seemingly a mark for toxic or unscored doses. Counts of survivors are from the toxicity check (mostly the fifth day) where no day follows; animals may have died later. Schedule codes are those of the source, read here as Q, the interval in days (D) or hours (H), X, the number of doses. Some complexes appear as separate parts, the way the source draws them; their charges need not add up. Where survival is the endpoint, the PubChem record calls one and a half times the control and up active, and a quarter to a half above the control has no call in these data; cut-offs in other NCI protocols can differ. Some T/C values are followed by the survivors on the day toxicity was checked, most often the fifth; where neither a count nor a note follows, no animal had died by that day. Some doses were run more than once; their values stand side by side, smallest first. Some schedules carry Z or #; the key to these is not given. Some T/C values are marked as having no survivor count here; that says nothing about deaths at the dose. Some structures stand for samples that the source files as different forms (salt, stereo form or complex); doses refer to the form tested.
# Test system: L1210 leukemia ip in BDF1 mice, survival T/C
# Assay: NCI In Vivo Anticancer Drug Screen. Data for tumor model L1210 Leukemia (intraperitoneal) in B6D2F1 (BDF1) mice
# Settings: T/C endpoint: mean survival time, higher T/C = longer survival
# [1] = dose: 50.0 mg/kg/injection, schedule: Q01DX001 (ip), vehicle: saline
# [2] = dose: 100.0 mg/kg/injection, schedule: Q01DX001 (ip), vehicle: saline
# [3] = dose: 200.0 mg/kg/injection, schedule: Q01DX001 (ip), vehicle: saline
# [4] = dose: 300.0 mg/kg/injection, schedule: Q01DX001 (ip), vehicle: saline
# [5] = dose: 400.0 mg/kg/injection, schedule: Q01DX001 (ip), vehicle: saline
# [6] = dose: 100.0 mg/kg/injection, schedule: Q04DX003 (ip), vehicle: saline with Tween-80
# [7] = dose: 10.0 mg/kg/injection, schedule: Q01DX Z (ip), vehicle: saline
smiles,measurement,setting,value
NP(=O)(N1CC1)N(CCCl)CC(Cl)CCCCl (stereo unspecified),T/C,"dose: 6.0 mg/kg/injection, schedule: Q01DX015 (ip), vehicle: saline",103 % of control
same,T/C,"dose: 9.0 mg/kg/injection, schedule: Q01DX015 (ip), vehicle: saline",103 % of control
same,T/C,"dose: 13.0 mg/kg/injection, schedule: Q01DX015 (ip), vehicle: saline",122 % of control
same,T/C,"dose: 19.0 mg/kg/injection, schedule: Q01DX015 (ip), vehicle: saline",129 [4 of 6 alive] and 144 % of control
same,T/C,"dose: 32.0 mg/kg/injection, schedule: Q01DX015 (ip), vehicle: saline",185 % of control
same,T/C,[1],96 % of control
same,T/C,"dose: 53.0 mg/kg/injection, schedule: Q01DX015 (ip), vehicle: saline",150 % of control
same,T/C,"dose: 89.0 mg/kg/injection, schedule: Q01DX001 (ip), vehicle: saline",143 % of control
same,T/C,"dose: 89.0 mg/kg/injection, schedule: Q01DX015 (ip), vehicle: saline",90 % of control
same,T/C,[2],109 % of control
same,T/C,"dose: 133.0 mg/kg/injection, schedule: Q01DX001 (ip), vehicle: saline",105 % of control [5 of 6 alive]
same,T/C,[3],107 [5 of 6 alive] and 156 % of control
same,survivor count,[4],2 of 6
same,survivor count,[5],2 of 4
Cc1ccc(OP(=S)(Cl)Cl)cc1,T/C,[6],103 % of control
same,T/C,"dose: 200.0 mg/kg/injection, schedule: Q04DX003 (ip), vehicle: saline with Tween-80",103 % of control
same,T/C,"dose: 400.0 mg/kg/injection, schedule: Q04DX003 (ip), vehicle: saline with Tween-80",103 % of control
NP(=O)(NC1CCCCC1)N(CCCl)CCCl (stereo unspecified),T/C,"dose: 1.25 mg/kg/injection, schedule: Q01DX Z (ip), vehicle: saline",93 % of control
same,T/C,"dose: 2.5 mg/kg/injection, schedule: Q01DX Z (ip), vehicle: saline",87 % of control
same,T/C,"dose: 5.0 mg/kg/injection, schedule: Q01DX Z (ip), vehicle: saline",95 % of control
same,T/C,"dose: 10.0 mg/kg/injection, schedule: Q01DX Z (ip), vehicle: other",105 % of control
same,T/C,[7],90 % of control
same,T/C,"dose: 30.0 mg/kg/injection, schedule: Q01DX Z (ip), vehicle: other",93 % of control [5 of 6 alive]
same,T/C,"dose: 100.0 mg/kg/injection, schedule: Q01DX Z (ip), vehicle: other",92 % of control
same,T/C,"dose: 300.0 mg/kg/injection, schedule: Q01DX Z (ip), vehicle: other",94 % of control
CCC(CO)Nc1c([N+](=O)[O-])cc([N+](=O)[O-])cc1[N+](=O)[O-] (stereo unspecified),T/C,"dose: 25.0 mg/kg/injection, schedule: Q01DX009 (ip), vehicle: acetone",95 % of control
same,T/C,"dose: 50.0 mg/kg/injection, schedule: Q01DX009 (ip), vehicle: acetone",100 % of control
same,T/C,"dose: 100.0 mg/kg/injection, schedule: Q01DX009 (ip), vehicle: acetone",92 % of control
Cc1ccc(SC2CCCC2Cl)cc1 (stereo unspecified),T/C,"dose: 100.0 mg/kg/injection, schedule: Q01DX001 (ip), vehicle: carboxymethylcellulose (CMC)",96 % of control
same,T/C,"dose: 200.0 mg/kg/injection, schedule: Q01DX001 (ip), vehicle: carboxymethylcellulose (CMC)",96 % of control
same,T/C,"dose: 400.0 mg/kg/injection, schedule: Q01DX001 (ip), vehicle: carboxymethylcellulose (CMC)",98 % of control
ClCCN1CSc2ccccc21,T/C,"dose: 3.0 mg/kg/injection, schedule: Q01DX Z (ip), vehicle: saline",92 % of control [5 of 6 alive]
same,T/C,[7],97 % of control
same,T/C,"dose: 30.0 mg/kg/injection, schedule: Q01DX Z (ip), vehicle: saline",106 % of control
same,T/C,"dose: 100.0 mg/kg/injection, schedule: Q01DX Z (ip), vehicle: saline",97 % of control
n1nc(-c2nn[nH]n2)n[nH]1,T/C,[6],90 % of control [survivor count not shown]
same,T/C,"dose: 100.0 mg/kg/injection, schedule: Q04DX003 (ip), vehicle: saline",104 % of control [survivor count not shown]
same,T/C,"dose: 200.0 mg/kg/injection, schedule: Q04DX003 (ip), vehicle: saline",93 % of control [survivor count not shown]
same,T/C,"dose: 400.0 mg/kg/injection, schedule: Q04DX003 (ip), vehicle: saline",96 % of control [survivor count not shown]
O=C1C(F)=C(NCCCl)C(=O)C(F)=C1NCCCl,T/C,"dose: 3.12 mg/kg/injection, schedule: Q04DX003 (ip), vehicle: Klucel (hydroxypropylcellulose) (HPC)",101 % of control
same,T/C,"dose: 6.25 mg/kg/injection, schedule: Q04DX003 (ip), vehicle: Klucel (hydroxypropylcellulose) (HPC)",95 % of control
same,T/C,"dose: 12.5 mg/kg/injection, schedule: Q04DX003 (ip), vehicle: Klucel (hydroxypropylcellulose) (HPC)",95 % of control
same,T/C,"dose: 25.0 mg/kg/injection, schedule: Q04DX003 (ip), vehicle: Klucel (hydroxypropylcellulose) (HPC)",95 % of control
same,T/C,"dose: 50.0 mg/kg/injection, schedule: Q04DX003 (ip), vehicle: Klucel (hydroxypropylcellulose) (HPC)",95 % of control
same,T/C,"dose: 100.0 mg/kg/injection, schedule: Q04DX003 (ip), vehicle: Klucel (hydroxypropylcellulose) (HPC)",95 % of control
same,T/C,"dose: 150.0 mg/kg/injection, schedule: Q04DX003 (ip), vehicle: Klucel (hydroxypropylcellulose) (HPC)",101 % of control
same,T/C,"dose: 225.0 mg/kg/injection, schedule: Q04DX003 (ip), vehicle: Klucel (hydroxypropylcellulose) (HPC)",95 % of control
same,T/C,"dose: 335.0 mg/kg/injection, schedule: Q04DX003 (ip), vehicle: Klucel (hydroxypropylcellulose) (HPC)",100 % of control
O=C(C(=O)c1ccc([N+](=O)[O-])cc1[N+](=O)[O-])c1ccc([N+](=O)[O-])cc1[N+](=O)[O-],T/C,[2],100 % of control
same,T/C,[3],100 % of control
same,T/C,[5],94 % of control
N#CCCOP(=O)(O)N(CCCl)CCCl.NC1CCCCC1,T/C,[2],111 % of control
same,T/C,[3],106 % of control
same,T/C,[5],121 % of control
CC1CC[P+](c2ccccc2)(c2ccccc2)c2ccccc21.F[P-](F)(F)(F)(F)F (stereo unspecified),T/C,"dose: 3.13 mg/kg/injection, schedule: Q01DX009 (ip), vehicle: saline with Tween-80",107 % of control
same,T/C,"dose: 6.25 mg/kg/injection, schedule: Q01DX009 (ip), vehicle: saline with Tween-80",107 % of control
same,T/C,"dose: 12.5 mg/kg/injection, schedule: Q01DX009 (ip), vehicle: saline with Tween-80",103 and 107 % of control [2 of 3 alive]
same,T/C,"dose: 25.0 mg/kg/injection, schedule: Q01DX009 (ip), vehicle: saline with Tween-80",109 % of control
same,T/C,"dose: 50.0 mg/kg/injection, schedule: Q01DX009 (ip), vehicle: saline with Tween-80",103 and 111 % of control
same,T/C,"dose: 100.0 mg/kg/injection, schedule: Q01DX009 (ip), vehicle: saline with Tween-80",93 % of control
same,survivor count,"dose: 200.0 mg/kg/injection, schedule: Q01DX009 (ip), vehicle: saline with Tween-80",0 of 3
CN(CCCl)CC1COc2ccccc2O1 (stereo unspecified),T/C,"dose: 75.0 mg/kg/injection, schedule: Q01DX001 (ip), vehicle: saline",104 % of control
same,T/C,"dose: 150.0 mg/kg/injection, schedule: Q01DX001 (ip), vehicle: saline",112 % of control [4 of 6 alive]
same,survivor count,[4],0 of 6
[B-][N+]1(C)CCN(C)P1F (stereo unspecified),T/C,"dose: 38.0 mg/kg/injection, schedule: Q01DX001 (ip), vehicle: carboxymethylcellulose (CMC)",104 % of control
same,T/C,"dose: 75.0 mg/kg/injection, schedule: Q01DX001 (ip), vehicle: carboxymethylcellulose (CMC)",120 % of control [5 of 6 alive]
same,survivor count,"dose: 150.0 mg/kg/injection, schedule: Q01DX001 (ip), vehicle: carboxymethylcellulose (CMC)",0 of 6
NCCCC(N)C(=O)O.NP(=O)(O)N(CCCl)CCCl,T/C,"dose: 25.0 mg/kg/injection, schedule: Q01DX001 (ip), vehicle: saline",112 % of control
same,T/C,"dose: 25.0 mg/kg/injection, schedule: Q01DX009 (ip), vehicle: saline",106 % of control
same,T/C,[1],96 % of control [5 of 6 alive]
same,T/C,"dose: 50.0 mg/kg/injection, schedule: Q01DX009 (ip), vehicle: saline",106 % of control
same,T/C,[2],106 and 118 % of control
same,T/C,"dose: 100.0 mg/kg/injection, schedule: Q01DX009 (ip), vehicle: saline",121 % of control [4 of 6 alive]
same,T/C,[3],118 % of control
same,survivor count,"dose: 200.0 mg/kg/injection, schedule: Q01DX009 (ip), vehicle: saline",2 of 6
same,survivor count,[5],2 of 4
